Source: PubChem BioAssay AID504467 (National Center for Advancing Translational Sciences (NCATS), 2011)
Hit rate of the full screen: of about 330,000 compounds, about 7,700 (2.3%) were called active. The inconclusive results got no clear call from the source; some entries with a clear call stand among them for comparison. The call rests on the fitted dose curve; in most records, active means well fitted inhibition curve with a large enough effect; inconclusive means small, poorly fitted or top-dose-only effect, or effect the other way; inactive means flat fitted curve, though single readings scatter. Potencies of inconclusive entries are doubtful fits and often do not repeat.

Test: qHTS screen for small molecules that inhibit ELG1-dependent DNA repair in human embryonic kidney (HEK293T) cells expressing luciferase-tagged ELG1; further: nearly all actives have a fitted effect of over 55% in size
Conditions: HEK293T ELG1-luciferase reporter, luminescence, 16 h, DNA damage induced by 5-fluorouridine; activity change, negative = inhibition: at 46.1 µM (top of the series)
Summary of the method: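 Step one: seed 2,000 cells per well. Step two: pin-transfer compound or DMSO alongside 5-fluorouridine. Step three: incubate 16 hr, 37 °C, 5% CO2. Step four: add ONE-Glo, wait 30 min, read luminescence.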
On the % scale 0 is the no-effect control and ±100 the full control effect; potency means the concentration at half of the fitted maximal effect.

| Structure (SMILES) | Potency | activity change, negative = inhibition |
| --- | --- | --- |
| CCOC(=O)C1[C@H]2C(=O)N(CCCOC)C[C@]23C=C[C@H]1O3 (stereo not given in full) | inconclusive: 29.1 µM [inhibitor, single point] |  |
| Nc1sccc1C(=O)c1ccc(Cl)cc1 | inconclusive: 10.3 µM [activator, partial curve] |  |
| COCCCNC(=O)COC(=O)c1ccc(-c2nc3ccccc3s2)s1 | inconclusive: 7.3 µM [activator, partial curve] |  |
| Cc1ccc(Cn2c(NC(=O)c3ccco3)nc3ccccc32)cc1 | inconclusive: 16.4 µM [activator, single point] |  |
| Cc1nc2ncnn2c(N2CCN(C(=O)c3cccc(F)c3)CC2)c1C | inconclusive: 20.6 µM [inhibitor, partial curve, poor fit] |  |
| CCOc1ccc(CCNC(=O)COC(=O)COc2ccc(Br)cc2)cc1OCC |  | inactive: 0.622% |
| Nc1ccc(C(=O)N2CCCC2)cc1CS(=O)(=O)c1ccc(Cl)cc1 |  | inactive: -2.17% |
| Cc1ccc(SCC(=O)Nc2ccc(-c3nnc(-c4ccco4)o3)cc2)cc1 | inconclusive: 2.59 µM [activator, partial curve] |  |
| O=C(COC(=O)c1cc(=O)[nH]c2ccccc12)NCCc1ccccc1 |  | inactive: 12.7% |
| O=C(CCc1nc2ccccc2c(=O)[nH]1)NNC(=O)c1cccc(Cl)c1 |  | inactive: -5.66% |
| Cc1ccc(-n2nc3cc(C)c(N)cc3n2)cc1 | inconclusive: 0.231 µM [activator, full curve] |  |
| CC(C)(C)NC(=O)CON=C1c2ccccc2-c2ccccc21 |  | inactive: -16.1% |
| O=C(c1ccccc1F)N1CCCc2ccccc21 | inconclusive: 20.6 µM [activator, partial curve, poor fit] |  |
| Cc1cc2n(n1)SC(Nc1cccc3ccccc13)N2 (stereo not given) | inconclusive: 20.6 µM [activator, partial curve] |  |
| O=C(NCCOc1ccccc1)c1ccccc1NC(=O)C1CCCO1 (stereo not given) | inconclusive: 6.51 µM [activator, partial curve] |  |
| CC(/C=N/Nc1nnc2c(n1)[nH]c1ccccc12)=C\c1ccco1 | inconclusive: 14.6 µM [activator, partial curve] |  |
| NC(=O)C1(C(N)=O)OC1c1ccccc1 (stereo not given) | inconclusive: 23.1 µM [activator, single point] |  |
| O=C(NC1CCCC1)c1ccc2nc(-c3ccco3)c(-c3ccco3)nc2c1 | inconclusive: 25.9 µM [inhibitor, single point] |  |
| O=C(N/N=C\c1ccncc1)c1ccccc1O | inconclusive: 29.1 µM [activator, single point] |  |
| Cc1ccc(NC2=NCC(Cc3ccc(Br)cc3)S2)cc1 (stereo not given) |  | inactive: -4.18% |
| CC1CC2OC(=O)C3(C)CCCC(C)(C23)C1(O)CCc1ccoc1 (stereo not given) | active: 14.6 µM |  |
| Cc1nc2cc(-c3ccc(Cl)cc3)nn2c(NCCN(C)C)c1C | inconclusive: 23.1 µM [activator, partial curve] |  |
| CN(C)S(=O)(=O)N(CC(=O)Nc1ccc(F)c(F)c1)c1ccccc1 |  | inactive: 3.16% |
| N#CCC(=O)Nc1ccc(C(=O)NNC(=S)NC2CC2)cc1 | inconclusive: 16.4 µM [activator, partial curve] |  |

| Structure (SMILES) | Potency | activity change, negative = inhibition |
| --- | --- | --- |
| CC1(C)NC(=O)N(CC(O)CNC23CC4CC(CC(C4)C2)C3)C1=O (stereo not given) | inconclusive: 14.6 µM [activator, single point] |  |
| CCOc1cc(N2CCOCC2)c(OCC)cc1NC(=O)COc1ccccc1[N+](=O)[O-] | inconclusive: 7.3 µM [inhibitor, partial curve, poor fit] |  |
| O=c1[nH]cnc2sc3c(c12)CCN(Cc1ccccc1)C3 | inconclusive: 29.1 µM [inhibitor, single point] |  |
| O=C(NCCCCc1ccccc1)c1cccc([N+](=O)[O-])c1 |  | inactive: -25.6% |
| Cc1ccnc(Cc2ccccc2)n1 | inconclusive: 0.146 µM [inhibitor, single point] |  |
| O=C(NCc1ccccc1C(F)(F)F)c1cccc2c1C(=O)c1ccc(N3CCCCC3)cc1S2(=O)=O | inconclusive: 4.11 µM [inhibitor, single point] |  |
| CC(C)(C)c1ccc(C(=O)N2CCC(C(=O)NC3CCCCCC3)CC2)cc1 | inconclusive: 23.1 µM [activator, partial curve] |  |
| Cc1nc(SCC(=O)NCC(F)(F)F)c2c(-c3cccs3)csc2n1 | inconclusive: 23.1 µM [inhibitor, partial curve] |  |
| C/C(=N\NC(=O)c1ccc(N2CCCC2=O)cc1)c1ccc(O)cc1O |  | inactive: -13.1% |
| CN1CCN(S(=O)(=O)c2ccc(NC(=S)NC(=O)c3ccccc3)cc2)CC1 | inconclusive: 25.9 µM [activator, partial curve, poor fit] |  |
| CCc1nc2ccccc2nc1N1CCN(S(=O)(=O)c2ccccc2)CC1 | inconclusive: 29.1 µM [inhibitor, single point] |  |
| CSC1=NC(C(Cl)(Cl)Cl)N=C(c2ccccc2)N1 (stereo not given) | inconclusive: 13 µM [inhibitor, partial curve] |  |
| O=c1c(Cc2ccc(F)cc2)c(O)ccn1CCCN1CCOCC1 |  | inactive: 0.859% |
| CC(C)CCn1c(C(C)O)nc2ccccc21 (stereo not given) |  | inactive: -13.8% |
| COc1ccccc1/C=C/c1nc(S(=O)(=O)c2ccccc2)c(N2CCC(C(N)=O)CC2)o1 | inconclusive: 29.1 µM [inhibitor, single point] |  |
| O=C(O)c1c(NC(=O)N2CCOCC2)sc2c1CCCC2 | inconclusive: 23.1 µM [activator, partial curve, poor fit] |  |
| COc1ccc([C@H]2CC(=O)C=C(c3cc(C=O)ccc3OC)C2)cc1OC | inconclusive: 16.4 µM [inhibitor, single point] |  |
| C=CCNc1oc(-c2ccc(Cl)cc2)nc1C#N | inconclusive: 2.59 µM [inhibitor, partial curve, poor fit] |  |
| c1ccc(-c2noc(CC3CCCCC3)n2)nc1 | inconclusive: 9.2 µM [activator, partial curve] |  |
| O=C(CSc1ncnc2ccccc12)Nc1cc(S(=O)(=O)N2CCCCC2)ccc1Cl | active: 20.6 µM |  |
| C=C(C)CNC(=O)c1ccc2nc(Cc3ccc(OC)cc3)oc2c1 | inconclusive: 14.6 µM [activator, partial curve] |  |
| O=C(Nc1ccc2c(c1)OCO2)C1CCCN(c2nc3ccccc3s2)C1 (stereo not given) | inconclusive: 25.9 µM [inhibitor, single point] |  |
| O=C(/C=C/c1ccccc1)OCCCN=C1NS(=O)(=O)c2ccccc21 | inconclusive: 29.1 µM [inhibitor, single point] |  |
| Cc1cc2nc(SCCN3CCCC3)[nH]c2cc1C | inconclusive: 20.6 µM [activator, single point] |  |

Exported bar-delimited: 18 of the compounds above
Structure (SMILES) | Potency | activity change, negative = inhibition
CC1(C)NC(=O)N(CC(O)CNC23CC4CC(CC(C4)C2)C3)C1=O (stereo not given) | inconclusive: 14.6 µM [activator, single point] | 
CCOc1cc(N2CCOCC2)c(OCC)cc1NC(=O)COc1ccccc1[N+](=O)[O-] | inconclusive: 7.3 µM [inhibitor, partial curve, poor fit] | 
O=C(NCCCCc1ccccc1)c1cccc([N+](=O)[O-])c1 |  | inactive: -25.6%
Cc1ccnc(Cc2ccccc2)n1 | inconclusive: 0.146 µM [inhibitor, single point] | 
O=C(NCc1ccccc1C(F)(F)F)c1cccc2c1C(=O)c1ccc(N3CCCCC3)cc1S2(=O)=O | inconclusive: 4.11 µM [inhibitor, single point] | 
CC(C)(C)c1ccc(C(=O)N2CCC(C(=O)NC3CCCCCC3)CC2)cc1 | inconclusive: 23.1 µM [activator, partial curve] | 
Cc1nc(SCC(=O)NCC(F)(F)F)c2c(-c3cccs3)csc2n1 | inconclusive: 23.1 µM [inhibitor, partial curve] | 
CN1CCN(S(=O)(=O)c2ccc(NC(=S)NC(=O)c3ccccc3)cc2)CC1 | inconclusive: 25.9 µM [activator, partial curve, poor fit] | 
O=c1c(Cc2ccc(F)cc2)c(O)ccn1CCCN1CCOCC1 |  | inactive: 0.859%
CC(C)CCn1c(C(C)O)nc2ccccc21 (stereo not given) |  | inactive: -13.8%
COc1ccccc1/C=C/c1nc(S(=O)(=O)c2ccccc2)c(N2CCC(C(N)=O)CC2)o1 | inconclusive: 29.1 µM [inhibitor, single point] | 
O=C(O)c1c(NC(=O)N2CCOCC2)sc2c1CCCC2 | inconclusive: 23.1 µM [activator, partial curve, poor fit] | 
COc1ccc([C@H]2CC(=O)C=C(c3cc(C=O)ccc3OC)C2)cc1OC | inconclusive: 16.4 µM [inhibitor, single point] | 
c1ccc(-c2noc(CC3CCCCC3)n2)nc1 | inconclusive: 9.2 µM [activator, partial curve] | 
O=C(CSc1ncnc2ccccc12)Nc1cc(S(=O)(=O)N2CCCCC2)ccc1Cl | active: 20.6 µM | 
C=C(C)CNC(=O)c1ccc2nc(Cc3ccc(OC)cc3)oc2c1 | inconclusive: 14.6 µM [activator, partial curve] | 
O=C(Nc1ccc2c(c1)OCO2)C1CCCN(c2nc3ccccc3s2)C1 (stereo not given) | inconclusive: 25.9 µM [inhibitor, single point] | 
Cc1cc2nc(SCCN3CCCC3)[nH]c2cc1C | inconclusive: 20.6 µM [activator, single point] | 

(list continues)

| Structure (SMILES) | Potency | activity change, negative = inhibition |
| --- | --- | --- |
| CCn1cc(C(=O)O)c(=O)c2cc(F)c(N3CCN(C(=S)NC(=O)c4ccc(OC)cc4)CC3)cc21 |  | inactive: -4.99% |
| CCOc1ccc(NC(=O)N2CC=C(n3c(=O)[nH]c4ccccc43)CC2)cc1 | inconclusive: 29.1 µM [inhibitor, single point] |  |
| COc1ccccc1NC(=O)CN1CCN(C(=O)C2CCCO2)CC1 (stereo not given) | inconclusive: 1.3 µM [inhibitor, partial curve, poor fit] |  |
| CCn1c(=O)c2cc(C(=O)NCCN3CCOCC3)sc2c2ccccc21 | inconclusive: 6.51 µM [activator, partial curve] |  |
| CCn1cc([N+](=O)[O-])c(C(=O)Nc2ccc(Cn3nc(C)cc3C)cc2)n1 |  | inactive: 0.352% |
| COc1ccccc1NC(=O)c1nc(S(=O)(=O)Cc2ccccc2)ncc1Cl | inconclusive: 16.4 µM [inhibitor, single point] |  |
| CC1c2cc3c(cc2CCN1CC(=O)Nc1ccccc1)OCCCO3 (stereo not given) | inconclusive: 25.9 µM [inhibitor, single point] |  |
| COc1ccc(S(=O)(=O)n2nc(-c3ccc(Cl)cc3)cc2N)cc1OC | inconclusive: 20.6 µM [inhibitor, single point] |  |
| O=C(CSc1nc(-c2ccc(Cl)cc2)cs1)Nc1cccc([N+](=O)[O-])c1 |  | inactive: -18.5% |
| COC(=O)/C=C1/N/C(=N\c2nc(C)cc(C)n2)N(c2ccccc2)C1=O |  | inactive: -8.14% |
| O=C(NCc1ccc(Cl)cc1)C(=O)NCC1OCCN1C(=O)c1ccc(Cl)cc1 (stereo not given) | inconclusive: 18.3 µM [inhibitor, single point] |  |
| O=c1[nH]nc(-c2ccccc2)c2ccccc12 | inconclusive: 6.51 µM [inhibitor, single point] |  |
| CCOC(=O)C1(CC)Oc2ccccc2C(c2ccc(OC)cc2)=C1C(=O)OC (stereo not given) | inconclusive: 8.2 µM [inhibitor, partial curve, poor fit] |  |
| COc1ccc(C(C)NC(=O)c2ccccc2Cl)cc1OC (stereo not given) |  | inactive: -8.22% |
| CCOC(=O)c1cn(Cc2ccc(Cl)cc2Cl)c2cc(C)nn2c1=O | inconclusive: 18.3 µM [inhibitor, partial curve] |  |
| CCCOc1ccc(Br)cc1CSC(=N)N | inconclusive: 6.51 µM [inhibitor, partial curve, poor fit] |  |
| O=C(CCN1C(=O)c2ccccc2C1=O)Nc1nc2ccccc2s1 |  | inactive: -19.1% |
| CNC(=O)c1[nH]nc2c1CCc1cc(OC)ccc1-2 | inconclusive: 23.1 µM [activator, partial curve] |  |
| CC1CCN(CC(=O)N2CCCc3c2c(=O)oc2ccc(OCc4ccccc4)cc32)CC1 | inconclusive: 32.6 µM [inhibitor, partial curve, poor fit] |  |
| CCN1CCCC1CNC(=O)c1ccc2c(c1)N(Cc1ccccc1F)C(=O)c1ccccc1S2(=O)=O (stereo not given) |  | inactive: 18.9% |
| O=S1(=O)C=CC(Nc2cccc(Cl)c2)C1 (stereo not given) |  | inactive: -9.94% |
| COC(=O)C1=C(N)Oc2cc(C)n(C)c(=O)c2C1c1ccc(Cl)cc1 (stereo not given) |  | inactive: 13.4% |
